Laboratory results as given in PubChem BioAssay AID540256 (National Center for Advancing Translational Sciences (NCATS), 2011).
Screen size: about 300,000 compounds; about 3,700 (1.2%) were called active. This list was built around the results that the source calls inconclusive (neither active nor inactive); the mix of calls is not that of the screen. The call rests on the fitted dose curve; tested in HEK293 cells. Potencies beside an inconclusive call are fits to weak or partial responses and may not hold up.

Assay: qHTS for Inhibitors of binding or entry into cells for Lassa Virus; further: nearly all actives have a fitted effect of over 50% in size
Conditions: Lassa virus pseudotype entry inhibition, cell reporter; series mostly up to 37.9 µM
Potency means the concentration at half of the fitted maximal effect.

| SMILES | Potency |
| --- | --- |
| CCc1nn2ncccc2c1-c1ccnc(NC2CC2)n1 | inconclusive: 1.12 µM [inhibitor, full curve, poor fit] |
| COc1cccc(/C=N/Nc2nc(Nc3ccccc3)nc(-n3nc(C)cc3C)n2)c1O | active: 15.8 µM |
| Cc1ccc(/C(N)=N/OC(=O)Cc2ccccc2)cc1 | inconclusive: 2.31 µM [activator, full curve] |
| CCOC(=O)C(=CNc1ccc(NC2=NCC(C)(C)S2)cc1)C(=O)OCC | inconclusive: 35.5 µM [inhibitor, single point] |
| Cc1ccc(N(CC(=O)N/N=C/c2ccc(OC3CSC3)cc2)S(=O)(=O)c2ccccc2)cc1 | inconclusive: 9.2 µM [inhibitor, partial curve, poor fit] |
| CCCCC/C(=N\NC(=O)CCC(=O)NCc1ccccc1)c1ccccc1 | inconclusive: 35.5 µM [inhibitor, single point] |
| O=C(OCC(=O)N1CCOCC1)c1ccccc1Br | inactive |
| COc1ccc(N/C(=N/c2nc(C)cc(C)n2)NC(=O)c2ccccc2)cc1 | inactive |
| Cc1cn(COC/C=C/c2ccccc2)c(=O)[nH]c1=O | inconclusive: 32.6 µM [activator, partial curve, poor fit] |
| COCCOC(=O)c1c(N)n(Cc2ccccc2)c2nc3ccccc3nc12 | inconclusive: 1.26 µM [inhibitor, full curve, poor fit] |
| CN(C)Cc1ccccc1Sc1ccc2c(c1)CCCC2 | inconclusive: 17.8 µM [inhibitor, partial curve, poor fit] |
| Cc1nc(NC(=O)/C=C/c2ccc(C(C)(C)C)cc2)sc1C(=O)N(C)C | inconclusive: 7.08 µM [inhibitor, partial curve, poor fit] |
| Cn1cc(CN(Cc2ccccc2)C[C@@H]2CCC(=O)N2)c(-c2ccccc2F)n1 | inconclusive: 10 µM [inhibitor, partial curve, poor fit] |
| O=C(c1cc([N+](=O)[O-])ccc1Cl)N1c2ccccc2Sc2ccccc21 | inconclusive: 17.8 µM [inhibitor, partial curve, poor fit] |
| O=C(Nc1nnc(-c2ccccc2F)s1)C1CCN(S(=O)(=O)c2ccc(Cl)cc2)CC1 | inconclusive: 1 µM [inhibitor, partial curve] |
| COC(=O)CN(c1c(C)cccc1C)S(C)(=O)=O | inconclusive: 1.64 µM [inhibitor, partial curve] |
| COc1ccccc1C(=O)Nc1ccc(-c2nc3ccccc3s2)c(C)c1 | inconclusive: 1.12 µM [activator, full curve, poor fit] |
| CNc1nc(NCc2ccccc2)c2ccccc2n1 | inconclusive: 28.2 µM [inhibitor, single point] |
| O=C(c1ccc(F)cc1F)N1CCCC(c2nc(-c3cccs3)no2)C1 (stereo not given) | inconclusive: 35.5 µM [inhibitor, partial curve, poor fit] |
| COc1ccccc1N1CC(C(=O)Nc2cc(C(F)(F)F)ccc2N2CCCC2)CC1=O (stereo not given) | inconclusive: 5.62 µM [activator, full curve, poor fit] |
| O=C(Nc1cccnc1)c1noc2c1CCCCC2 | inconclusive: 6.51 µM [inhibitor, full curve, poor fit] |
| Cc1ccc(NC(=O)CNc2cccc(S(=O)(=O)N3CCCC3)c2)cc1F | inactive |

| SMILES | Potency |
| --- | --- |
| O=C(c1ccncc1)N1CCCC(N2CCN(c3ccc(F)cc3)CC2)C1 (stereo not given) | inactive |
| COc1cc(C)ccc1OCCSc1nnc(-c2ccc(C)cc2)o1 | inactive |
| Cc1ccc(C(=O)c2oc3ccccc3c2NC(=O)Cc2coc3c(C)c(C)ccc23)cc1 | inconclusive: 2.51 µM [inhibitor, partial curve, poor fit] |
| Cc1c(NC(=O)c2cc3nc(-c4ccc(Cl)cc4)cc(C(F)(F)F)n3n2)c(=O)n(-c2ccccc2)n1C | inactive |
| COc1ccc(-c2nc3ccccc3n2Cc2ccc(Cl)cc2)cc1 | inconclusive: 35.5 µM [inhibitor, single point] |
| O=C(OCc1cc(=O)n2c3c(sc2n1)CCCC3)c1cccc(NC(=O)c2ccccc2F)c1 | inconclusive: 17.8 µM [inhibitor, single point] |
| Cc1ccc(-n2nnnc2-c2cnc3ccc(Cl)cc3c2-c2ccccc2)cc1 | inconclusive: 29.1 µM [inhibitor, single point] |
| Cc1ccc(O)c(C(=O)c2cc(C(=O)NCc3ccccc3)c(=O)n(Cc3ccccc3)c2)c1 | inconclusive: 2.51 µM [inhibitor, partial curve, poor fit] |
| Cc1ccc(C)c(-n2nnnc2SCC(=O)c2ccc3c(c2)NC(=O)CO3)c1 | inconclusive: 18.3 µM [inhibitor, single point] |
| Cc1ccc(S(=O)(=O)c2c(Nc3cccc(Cl)c3)sc(C(=O)c3ccc4c(c3)OCO4)c2N)cc1 | inconclusive: 6.31 µM [inhibitor, single point] |
| Cc1ccc(NC(=O)N2CCCC2C(=O)Nc2ccc3c(c2)OCO3)cc1 (stereo not given) | inactive |
| CC(=O)CCc1c[nH]c2c(C(=O)O)cccc12 | inconclusive: 12.6 µM [activator, partial curve] |
| O=C(NCc1ccccc1Cl)c1ccc(NC(=O)N2CCCCc3ccccc32)cc1 | inconclusive: 5.62 µM [inhibitor, single point] |
| CCOc1ccccc1C(=O)Nc1ccc(S(=O)(=O)N2CCCCC2c2cccnc2)cc1 (stereo not given) | inconclusive: 35.5 µM [inhibitor, single point] |
| CCn1c(SCC(=O)N/N=C/c2c[nH]c3ccccc23)nnc1-c1ccc(C(C)(C)C)cc1 | active: 4.47 µM |
| COc1ccc(-c2nc(CNS(=O)(=O)c3ccc(C)cc3)cs2)cc1 | inconclusive: 35.5 µM [inhibitor, single point] |
| O=C(O)Cc1cnc[nH]1 | inconclusive: 2.31 µM [inhibitor, full curve, poor fit] |
| CC(C)NC1(C#N)CCN(Cc2ccccc2)CC1 | inactive |
| O=C(Cc1cccc2ccccc12)Nc1ccccc1C(=O)O | inconclusive: 29.1 µM [inhibitor, single point] |
| CCn1nnc(-c2ccccc2NC(=O)c2cc(OC)c(OC)c(OC)c2)n1 | inconclusive: 32.6 µM [inhibitor, single point] |
| Cc1ccc(N2C(=O)N(Cc3ccccc3C)c3ccccc3S2(=O)=O)cc1 | inconclusive: 2.24 µM [inhibitor, partial curve] |
| COC(=O)c1ccc(-n2c(C)cc(-c3csc(NC(=O)c4ccc(S(=O)(=O)N(C)C)cc4)n3)c2C)cc1 | inconclusive: 2.82 µM [inhibitor, single point] |

| SMILES | Potency |
| --- | --- |
| CSc1cccc(NS(=O)(=O)c2ccc(-c3coc(C)n3)cc2)c1 | inconclusive: 10 µM [inhibitor, partial curve, poor fit] |
| Cc1ccc(OCC(O)CNC(=O)c2ccccc2C(=O)O)cc1 (stereo not given) | inactive |
| Cc1cc(C)nc(NC(=NCCc2c[nH]c3ccccc23)NC(=O)c2ccco2)n1 | inconclusive: 35.5 µM [inhibitor, partial curve, poor fit] |
| CC(C(=O)N1CCc2ccccc21)n1cccc1 (stereo not given) | inactive |
| Cc1nc2ccc(NC(=O)N(C(C)C)C(C)C)cc2s1 | inconclusive: 16.4 µM [activator, partial curve] |
| N#Cc1cccc(C(=O)OCc2cccc(S(=O)(=O)N3CCOCC3)c2)c1 | inactive |
| CCC(=O)c1c[nH]c(C(=O)NCc2cccs2)c1 | inconclusive: 7.08 µM [inhibitor, partial curve] |
| CC(C)CC(=O)NC(=S)Nc1ccc(Cl)cn1 | inactive |
| Cc1ccccc1-c1ccc(C(=O)NCc2ccccc2)o1 | inconclusive: 5.8 µM [inhibitor, partial curve] |
| Fc1ccc(-n2cc(-c3ccccc3)c3c(N4CCOCC4)ncnc32)cc1 | inconclusive: 8.91 µM [inhibitor, partial curve, poor fit] |
| Cc1nc2ccccn2c1P(=O)(N1CCCCC1)N1CCCCC1 | inconclusive: 0.58 µM [inhibitor, full curve] |
| CC(C)(C)C(=O)NNC(=O)c1cc(C(C)(C)C)nn1Cc1ccccc1 | inconclusive: 0.501 µM [inhibitor, full curve, poor fit] |
| Cc1ccc(S(=O)(=O)N2CCCCC2)cc1NC(=O)C1CC(=O)N(c2ccc3c(c2)OCCO3)C1 (stereo not given) | inconclusive: 15.8 µM [inhibitor, single point] |
| CCOc1ccc(S(=O)(=O)NCc2ccncc2)cc1 | inconclusive: 1.83 µM [inhibitor, full curve, poor fit] |
| Cc1csc(NC(=O)C2C3C=CC(O3)C2C(=O)O)n1 (stereo not given) | inconclusive: 29.1 µM [activator, single point] |
| O=C(O)CS(=O)(=O)c1ccc(C(F)(F)F)cn1 | inconclusive: 35.5 µM [activator, single point] |
| Cc1cccc(NC(=O)C2CCCN(S(=O)(=O)c3ccc4[nH]c(=O)ccc4c3)C2)n1 (stereo not given) | inconclusive: 35.5 µM [inhibitor, single point] |
| Fc1ccc(C2=CCN(C(c3ccc(Cl)cc3)c3nnnn3Cc3ccccc3)CC2)cc1 (stereo not given) | inconclusive: 35.5 µM [inhibitor, single point] |
| CCOC(=O)c1nnn2c1nc(N1CCOCC1)c1ccccc12 | inactive |
| Nc1ccc(Sc2ccc([N+](=O)[O-])cc2)cc1 | inactive |
| COc1cccc(NC(=O)CSc2nnc(Cc3cccs3)n2-c2ccc(C)cc2)c1 | inconclusive: 29.1 µM [inhibitor, single point] |

Laid out differently: results already given.
Cn1cc(CN(Cc2ccccc2)C[C@@H]2CCC(=O)N2)c(-c2ccccc2F)n1
  Potency: inconclusive: 10 µM [inhibitor, partial curve, poor fit]
O=C(c1cc([N+](=O)[O-])ccc1Cl)N1c2ccccc2Sc2ccccc21
  Potency: inconclusive: 17.8 µM [inhibitor, partial curve, poor fit]
O=C(Nc1nnc(-c2ccccc2F)s1)C1CCN(S(=O)(=O)c2ccc(Cl)cc2)CC1
  Potency: inconclusive: 1 µM [inhibitor, partial curve]
COC(=O)CN(c1c(C)cccc1C)S(C)(=O)=O
  Potency: inconclusive: 1.64 µM [inhibitor, partial curve]
